No constants are given. Whether binding was seen depends on the method and setting. Some binding calls cover weakened binding; strength is not graded here. Each block holds one binder with its values, some of them ahead of it.
Legend:
[1] = target: cyno TSLP (cynomolgus monkey); assay: Gyrolab in-solution affinity
[2] = target: cyno IL-13 (cynomolgus monkey) (UniProt Q0PW92); assay: Gyrolab in-solution affinity
OX40L (human) = OX40L (human) (UniProt P23510); assay: SPR (Biacore T200), F027400161 captured on immobilised hTSLP, hOX40L injected for 2 min at 10 µl/min
[3] = target: cyno TSLP (cynomolgus monkey); assay: SPR

The chains behind the UniProt entries cited, without tags or fusion partners. Where a name states a change or a piece, a line headed by the entry shows the natural chain unless it says otherwise. A line that says so, or that is headed by a name, gives the form on record, which may keep a tag or linker. Residues count along the entry.
cyno IL-13 (Q0PW92, form named): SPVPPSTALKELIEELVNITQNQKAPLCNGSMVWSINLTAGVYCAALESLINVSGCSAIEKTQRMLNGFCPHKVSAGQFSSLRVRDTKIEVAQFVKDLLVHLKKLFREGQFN
UniProt P23510, residues 51-183: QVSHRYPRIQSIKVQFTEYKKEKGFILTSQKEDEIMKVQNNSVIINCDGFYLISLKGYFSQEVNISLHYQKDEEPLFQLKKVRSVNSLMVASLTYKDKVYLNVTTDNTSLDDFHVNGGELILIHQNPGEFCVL

binding [1]: binds
binding [2]: binds
binding (OX40L (human)): no binding (tested: 100 nM)
B1: F027400161 (protein)
chain: DVQLVESGGGVVQPGGSLRLSCAASGRTFSSYRMGWFRQAPGKEREFVAALSGDGYSTYTANSVKGRFTISRDNSKNTVYLQMNSLRPEDTALYYCAAKLQYVSGWSYDYPYWGQGTLVTVSSGGGGSGGGGSGGGGSGGGGSGGGGSGGGGSGGGGSEVQLVESGGGVVQPGGSLRLSCAASGFTFNNYAMKWVRQAPGKGLEWVSSITTGGGSTDYADSVKGRFTISRDNSKNTLYLQMNSLRPEDTALYYCANVPFGYYSEHFSGLSFDYRGQGTLVTVSSGGGGSGGGSEVQLVESGGGVVQPGGSLRLSCAASGSGFGVNILYWYRQAAGIERELIASITSGGITNYVDSVKGRFTISRDNSENTMYLQMNSLRAEDTGLYYCASRNIFDGTTEWGQGTLVTVSSGGGGSGGGSEVQLVESGGGVVQPGGSLRLSCAASGFTFRSFGMSWVRQAPGKGPEWVSSISGSGSDTLYADSVKGRFTISRDNSKNTLYLQMNSLRPEDTALYYCTIGGSLSRSSQGTLVTVSSGGGGSGGGSEVQLVESGGGVVQPGGSLRLSCAASGFTFADYDYDIGWFRQAPGKEREGVSCISNRDGSTYYADSVKGRFTISRDNSKNTVYLQMNSLRPEDTALYYCAVEIHCDDYGVENFDFDPWGQGTLVTVSSA

binding [3]: binds
B2: F010704076 (VHH)
VHH: EVQLVESGGGLVQPGGSLRLSCAASGSGFGVNILYWYRQAAGIERELIASITSGGITNYVDSVKGRFTISRDNSENTMYLQMNSLRAEDTGVYYCASRNIFDGTTEWGQGTLVTVSS

Reference: patent US20220177564A1
